Experimental data: patent US20240216900A1, “SABRE CATALYSTS CONTAINING FLUORINATED CARBON CHAINS FOR DELIVERY OF METAL-FREE MRI CONTRAST AGENTS” (The U.S.A., as represented by the Secretary, Department of …, priority 2022, published 2024)
Read-outs that look alike come from different tables or passages of the source.

Legend:
[1] = for pyruvate hyperpolarization, initial level: CD3OD/Novec 7100, before purification
[2] = 13C polarization of [1-13C]pyruvate after isolation from the catalyst into aqueous medium (precipitation, filtration, evaporation, biphasic extraction); settings: for pyruvate hyperpolarization after D2O addition, solvent evaporation and filtration: whole procedure about 2 minutes; for Signal enhancement ε in the water phase: 300 μL D2O biphasic extraction from CD3OD/Novec 7100; for P13C in the water phase: after biphasic extraction
[3] = Recycling and re-use of the perfluorinated SABRE catalyst for repeated [1-13C]pyruvate hyperpolarization
[4] = Example 5, FIG. 6 legend: 30 mM sodium [1-13C]pyruvate, 42 mM PTFSO, 7.8 mM Ir-F-IMes, deuterated methanol, 55 s 50% p-H2, BT=-0.7 μT, 1.88 T
[5] = Example 9, FIG. 15: after EtOAc precipitation and reconstitution in water (D2O), 7.5 mM fluorinated catalyst, 50 mM DMSO
[6] = Example 26, FIG. 24: aqueous phase after adding 400 μL D2O to NFBME/MeOD mixture (emulsion formed)

Structure (SMILES): CC(=O)C(=O)O [[1-^13C]pyruvate, sodium [1-^13C]pyruvate]
- Enhancement ε [1, 4]: ~1250
- polarization P(13C) [1, 4]: ~0.1%
- polarization P(13C) ([1]; Example 5 text: 8 mM fluorinated catalyst (Example 4), 16 mM PTFSO, 30 mM [1-13C]pyruvate, 0.6 mL CD3OD, room temperature, 50% p-H2): ~1%
- pyruvate hyperpolarization, initial level ([1]; Example 33: DMSO co-ligand): 13.6%
- pyruvate hyperpolarization, initial level ([1]; Example 34: PTMSO co-ligand): 8.3%
- HP 13C signal after catalyst precipitation with D2O and filtration ([2]; Example 8: Example 4 catalyst, DMSO, CD3OD, 20% D2O, Oasis HLB filter, procedure 1.15-1.30 min, 1.8 T): no HP ^13C signal was observed
- P13C [2, 5]: ~2.17%
- signal enhancement ε [2, 5]: ~9000 fold
- P13C [2, 6]: ~1.68%
- signal enhancement ε [2, 6]: ~10800 fold
- pyruvate hyperpolarization after D2O addition, solvent evaporation and filtration ([2]; Example 33, FIG. 41: DMSO co-ligand, 5 s vacuum at 80 °C): 2.57%
- pyruvate hyperpolarization after D2O addition ([2]; Example 33: 200 μL D2O added, emulsion): 5.9%
- pyruvate hyperpolarization after filtration of the emulsion ([2]; Example 33: Oasis HLB filter, whole procedure about 1.30 minutes): 0.34%
- pyruvate hyperpolarization after D2O addition, solvent evaporation and filtration ([2]; Example 34, FIG. 42: PTMSO co-ligand): 0.2%
- Signal enhancement ε in the water phase ([2]; Example 35, FIG. 44A: DMSO co-ligand): ~39300 fold
- Signal enhancement ε in the water phase ([2]; Example 35, FIG. 44B: PTMSO co-ligand): ~25700 fold
- P13C in the water phase ([2]; Example 35: DMSO co-ligand): ~6.13%
- P13C in the water phase ([2]; Example 35: PTMSO co-ligand): ~4%
- signal enhancement ε ([3]; Example 26, FIG. 25: catalyst in fluorous mixture re-used 4 days later, 23 mM pyruvate, 47 mM DMSO): ~3090 fold
- diminution in [1-13C]pyruvate hyperpolarization in methanol ([3]; Example 36: by the third recycle): 39%
- signal enhancement ε after catalyst recycling ([3]; Example 36: second round of polarization with recycled catalyst): ~3090 fold
- [1-13C]pyruvate polarization lost ([3]; Example 36: sixth cycle): 60.8%
